These results are taken from publication PMC11772769, “Selective cargo and membrane recognition by SNX17 regulates its interaction with Retriever” (EMBO Reports, 2024).

Sequences of proteins named here, by UniProt entry; tags and fusion partners are left off. A change or cut given only in a name is not applied to a line headed by its entry. A line that says so, or that is headed by a name, gives the form on record, which may keep a tag or linker.
GST-LRP1_(ICD-mut) (N4470A + Y4473A) (Q07954, form named): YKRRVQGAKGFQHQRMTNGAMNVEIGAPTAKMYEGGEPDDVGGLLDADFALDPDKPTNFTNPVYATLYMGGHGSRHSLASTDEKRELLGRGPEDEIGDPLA

Results are given in words; binding and its absence hold for the method and conditions named. Some results given as binding are weak or reduced against the parent protein; the word gives no strength. For some assays here: Tags and fused reporters may be left off the sequences shown.

Assay [1] deals with T1, MBP-SNX17 (full-length, wild-type) (UniProt Q15036).
T1 sequence: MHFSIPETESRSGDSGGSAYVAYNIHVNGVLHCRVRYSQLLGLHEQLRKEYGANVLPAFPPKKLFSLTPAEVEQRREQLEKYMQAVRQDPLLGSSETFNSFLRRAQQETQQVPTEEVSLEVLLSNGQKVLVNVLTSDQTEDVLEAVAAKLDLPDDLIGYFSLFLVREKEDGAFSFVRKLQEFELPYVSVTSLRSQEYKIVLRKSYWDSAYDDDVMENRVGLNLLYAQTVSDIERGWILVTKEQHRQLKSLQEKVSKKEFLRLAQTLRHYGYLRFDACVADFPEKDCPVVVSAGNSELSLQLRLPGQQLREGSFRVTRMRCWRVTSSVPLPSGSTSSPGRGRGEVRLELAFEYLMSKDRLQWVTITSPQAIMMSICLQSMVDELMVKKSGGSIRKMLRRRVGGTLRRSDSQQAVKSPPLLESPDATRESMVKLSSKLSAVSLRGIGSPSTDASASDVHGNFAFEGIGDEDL
Kind of assay: pull-down; both purified.

Assay [2] addresses VPS35L (subunit co-expressed in insect cells) (UniProt Q7Z3J2). The assay is described as follows: co-purification of co-expressed subunits; Retriever subunits with VPS35L constructs of different lengths co-expressed in insect cells and purified; SDS-PAGE of the purified complexes.

In the case of “GST-LRP1_(ICD-mut) (N4470A + Y4473A) (from UniProt Q07954 4444-4544) (domain or fragment)”, in assay [1], the binding result was “no binding”.

As for “VPS26C (subunit co-expressed in insect cells) (from UniProt O14972 1-297)”, in assay [2], the binding entry is reported as “binds”.
